# In article PMC7819943, “Rice protein-binding microarrays: a tool to detect cis-acting elements near promoter regions in rice”:
# The chains behind the UniProt entries cited, without tags or fusion partners.
# UniProt Q0JBA9, entry or part of it: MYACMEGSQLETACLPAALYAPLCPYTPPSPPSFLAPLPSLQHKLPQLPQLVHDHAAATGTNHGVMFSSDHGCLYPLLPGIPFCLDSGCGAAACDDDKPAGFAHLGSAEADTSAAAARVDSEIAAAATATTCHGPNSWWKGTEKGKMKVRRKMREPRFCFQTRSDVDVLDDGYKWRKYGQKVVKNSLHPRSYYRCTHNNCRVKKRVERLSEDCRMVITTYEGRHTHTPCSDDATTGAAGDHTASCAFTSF
# The list shows a part of the results.
# Target: OsWRKY34 (Oryza sativa, UniProt Q0JBA9 1-250)
# Test: protein-binding microarray (RPBM); PBS, 2% BSA, 51.3 ng/ul salmon testes DNA, 50 uM zinc acetate, 200 nM TF, 25 C, 1 h; high values mean tight binding
# Settings: protein: recombinant; tags: N-terminal polyhistidine and DsRed monomer fusion (pET32a); label: CyDye5-dUTP incorporated in the synthesized complementary strand; 3' TTTTT single-stranded linker to array surface; dsDNA, one strand shown
# Procedure, shortened: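 The binding signal is fluorescence intensity per feature, in arbitrary units, read on an Axon 4000B scanner. Polyhistidine- and DsRed-tagged transcription factors (N-terminal fusions) from E. coli BL21-CodonPlus were purified on Ni–NTA and applied at 200 nM for 1 h at 25 °C to a double-stranded, BSA-blocked custom Agilent array in buffer with 50 µM zinc acetate.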
row,Sequence,binding signal
1,CTCAACACTTTTAGGCCTGCCTCTGCCTCTGCCTCTCTATCGGAGTCACCTAGTGCAG,8140 fluorescence intensity (a.u.)
2,TTTAACTCTCGTTTTTGGTTCCCAAGGTGTGAAATTCTGTCGGAGTCACCTAGTGCAG,10400 fluorescence intensity (a.u.)
3,TACGCTGTGATCCCCGTCTTCAATTTCTCGTTCGCTCTCACGGAGTCACCTAGTGCAG,12800 fluorescence intensity (a.u.)
4,ATTTTGGTTTCATTGGCTTTACTTCAAGACAATCAGCTTTCGGAGTCACCTAGTGCAG,8270 fluorescence intensity (a.u.)
5,TCCCCGTTGCTTTTGCTCTTCGTCAGATTAATCCTTTCCTCGGAGTCACCTAGTGCAG,13300 fluorescence intensity (a.u.)
6,TCTCTTAGCGCATTTTTTTTACTAGGACCTATTAACTTAACGGAGTCACCTAGTGCAG,9440 fluorescence intensity (a.u.)
7,TTCTGGTTTTATGGTTAAGTTGAGGGATCTCCGGTGAACTCGGAGTCACCTAGTGCAG,9460 fluorescence intensity (a.u.)
8,GCGTCAGCAACCCAGCCCAAGCCTATCCTAGCGTCGTCATCGGAGTCACCTAGTGCAG,8120 fluorescence intensity (a.u.)
9,GTTGTATATAGAATATATATTGATCTGTTACATGTAAATTCGGAGTCACCTAGTGCAG,8090 fluorescence intensity (a.u.)
10,CTCCGATTCTAGCCTACCTCGCTCGCTCGCTCGCTCGCTCCGGAGTCACCTAGTGCAG,9480 fluorescence intensity (a.u.)
11,TTTAAATCTATTTTTTTTCTGGGGTTATATATTTTTTATACGGAGTCACCTAGTGCAG,9420 fluorescence intensity (a.u.)
12,ATGATATGTTCCATACTAAATTTATTGTTTTTTTGATAGTCGGAGTCACCTAGTGCAG,9170 fluorescence intensity (a.u.)
13,CTCTCCTCCTCCACCTCGCTGACGCTTTGTCCCTTTATTCCGGAGTCACCTAGTGCAG,9930 fluorescence intensity (a.u.)
14,ACCTTGACCTTTACTGGCATTTTTCAGTCATCAACTACTACGGAGTCACCTAGTGCAG,9620 fluorescence intensity (a.u.)
15,TTGCCTCTCGCTGCCTTGCCCCACAGCGACCGGTCTCGTACGGAGTCACCTAGTGCAG,8810 fluorescence intensity (a.u.)
16,CGTTGGGCCCCATGCTTCTCTAATCACTCGATCTCTCCCACGGAGTCACCTAGTGCAG,10600 fluorescence intensity (a.u.)
17,CTAAGGCCTGTTGCCTGCTCTAGTCTGATTCAACTTTCAACGGAGTCACCTAGTGCAG,8830 fluorescence intensity (a.u.)
18,CGTGGACGCCGCGCTTACCGTCACCTCCGCCGGGCCCACCCGGAGTCACCTAGTGCAG,8460 fluorescence intensity (a.u.)
19,TTAACGTACACCCACGCTTACCATCATCAAATCGAAATCGCGGAGTCACCTAGTGCAG,8350 fluorescence intensity (a.u.)
20,GATAGCCCTACTTACCCGGCCCATAATCACGATGGGCCAGCGGAGTCACCTAGTGCAG,8040 fluorescence intensity (a.u.)
21,GCTCTCTCGTCTCTTATCTTCTCTCGCGCGCACAGTGATGCGGAGTCACCTAGTGCAG,8910 fluorescence intensity (a.u.)
22,CCCGACCAAACACTACGAACTCTTCTACCTTCTTTGTTTCCGGAGTCACCTAGTGCAG,12600 fluorescence intensity (a.u.)
23,AAGATTGTCCGAAGGCCCCTTGCTTGTGTTGCCAGATTTCCGGAGTCACCTAGTGCAG,9870 fluorescence intensity (a.u.)

# Copied from the results shown for reference:
row,Sequence,binding signal
18,CGTGGACGCCGCGCTTACCGTCACCTCCGCCGGGCCCACCCGGAGTCACCTAGTGCAG,8460 fluorescence intensity (a.u.)
19,TTAACGTACACCCACGCTTACCATCATCAAATCGAAATCGCGGAGTCACCTAGTGCAG,8350 fluorescence intensity (a.u.)
